Test results published in patent US11091559B2, “Anti-ALK antibodies and methods for use thereof” (Celldex Therapeutics, Inc., priority 2015, dated 2021).

B1: Ab331: anti-ALK monoclonal antibody; VL SEQ ID NO: 417, VH SEQ ID NO: 418 (antibody, V domains shown)
VH: EVQVVETGGGVVQPGKSLEITCATSGLTFSTAWMYWVRQSSDRRLEWIARIKDKSNNFASDYVESVRGRFTISRDDSRSSVYLQMNNLKEEDTATYYCTTSYGYAWGQGVMVTVSS
VL: DIQMTQSPSSMSASLGDRITITCQASQDIGNYLIWFQQKPGKSPRPLIYYATNLANGVPSRFSGSRSGSEYSLTITSLESEDMADYHCLQYKQHLTFGSGTKLEIER
modifications: VH domain - Ab331; VL domain - Ab331
B2: Ab329: anti-ALK monoclonal antibody; VL SEQ ID NO: 413, VH SEQ ID NO: 414 (antibody, V domains shown)
VH: QVQLKESGPGLVKPSATLSLTCTVSGFSLTSYHVCWIRQTPGKGLEWMGVIWGDGRTTYNPPLKSRLSISRDTSKSQVFLKMSSLKTEDTATYYCARATMTGHGDAWGQGASVTVSS
VL: DIQMTQSPASLSASLEEIVTITCQASQDIDNYLSWYQQKPGKSPHLLIHSATSLADGVPSRFSGGRSGTQFSLKINRLQVEDTGIYYCLQHYSGWTFGGGTKLELKR
modifications: VH domain - Ab329; VL domain - Ab329
B3: Ab332: anti-ALK monoclonal antibody; VL SEQ ID NO: 419, VH SEQ ID NO: 420 (antibody, V domains shown)
VH: EVQLQQSGPELVKPGTSVKISCKASGYTFTDYYMNWMKQSHGKSLEWIGDINPNNGVTSYNQKFKGKATLTVDKSSSTAYMELRSLTSEDSAVYYCAREDYGSNYFDYWGQGTTLTVSS
VL: DIVLTQSPASLAVSLGQRATISCKASQSVDYDGDSYMNWYQQKPGQPPKLLIYAASNLESGIPARLSGSGSGTDFTLNIHPVEEEDAATYYCQQSNEDPPTFGGGTKLEIRR
modifications: VH domain - Ab332; VL domain - Ab332

system: N-terminal region of human ALK (M1-G640): NTR, MAM1, LdLa, MAM2 domains; test: Domain mapping by Western blotting; assay type: binding; settings: domain bound, antibodies to the N-terminal region

| Molecule | Bin/Domain (domain) |
| --- | --- |
| B1 | MAM1 |
| B2 | MAM1 |
| B3 | NTR |
